Test results published in patent US20190233486A1 (ACCELERON PHARMA, published 2019).
No constants are given. Whether binding was seen depends on the method and setting. Some binding calls cover weakened binding; strength is not graded here. For some of these results: Tags and fused reporters may be left off the sequences shown.

Sequences of proteins named here, by UniProt entry; tags and fusion partners are left off. A change or cut given only in a name is not applied to a line headed by its entry.
UniProt P27037: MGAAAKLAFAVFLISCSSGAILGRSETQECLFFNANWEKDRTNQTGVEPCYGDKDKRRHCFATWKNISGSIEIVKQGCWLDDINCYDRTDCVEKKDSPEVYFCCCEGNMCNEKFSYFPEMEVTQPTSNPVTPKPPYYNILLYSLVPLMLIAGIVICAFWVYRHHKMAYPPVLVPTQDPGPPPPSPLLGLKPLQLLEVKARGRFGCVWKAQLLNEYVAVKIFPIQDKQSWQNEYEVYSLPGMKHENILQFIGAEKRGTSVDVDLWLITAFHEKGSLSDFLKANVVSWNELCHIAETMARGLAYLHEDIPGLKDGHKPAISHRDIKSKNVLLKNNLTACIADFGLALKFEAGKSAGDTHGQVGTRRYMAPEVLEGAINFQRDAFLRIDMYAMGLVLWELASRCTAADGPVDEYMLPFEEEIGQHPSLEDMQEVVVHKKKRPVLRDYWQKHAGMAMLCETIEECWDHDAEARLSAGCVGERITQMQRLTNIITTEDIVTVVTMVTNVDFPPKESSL

T1: GDF11 (UniProt O95390 299-407)
T1 construct: also called growth and differentiation factor-11; BMP11
T1 sequence (looked up): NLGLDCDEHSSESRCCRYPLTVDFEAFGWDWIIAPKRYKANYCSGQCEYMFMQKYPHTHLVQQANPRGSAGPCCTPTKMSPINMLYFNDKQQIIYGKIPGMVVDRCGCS


Key:
[1] = molecular target: T1, GDF11; experiment: Biacore SPR; ligand amine-coupled to CM5 chip, receptor-Fc injected
[2] = molecular target: T1, GDF11; experiment: Biacore SPR; ligand coupled, receptor-Fc flowed over; legend: +++++ = ~40x increased binding
[3] = molecular target: T1, GDF11; experiment: Biacore SPR; ligand coupled, receptor-Fc flowed over; legend: - = ~1/2 WT binding

Molecule | binding [3] | also measured
ActRIIA-mFc (from UniProt P27037 21-135) (Fc fusion) |  | binding [1]: binds
Soluble ActRIIB-Fc variant K74A (second Biacore table of Example 12) (Fc fusion, UniProt Q13705 19-119, looked up, not shown: a dimerising Fc or GST) SGRGEAETRECIYYNANWELERTNQSGLERCEGEQDKRLHCYASWANSSGTIELVAKGCWLDDFNCYDRQECVATEENPQVYFCCCEGNFCNERFTHLPEA |  | binding [2]: binds
Soluble ActRIIB-Fc variant F82A (Fc fusion, UniProt Q13705 19-119, looked up, not shown: a dimerising Fc or GST) SGRGEAETRECIYYNANWELERTNQSGLERCEGEQDKRLHCYASWANSSGTIELVKKGCWLDDANCYDRQECVATEENPQVYFCCCEGNFCNERFTHLPEA | binds | 
Soluble ActRIIB-Fc variant R40A (Fc fusion, UniProt Q13705 19-119, looked up, not shown: a dimerising Fc or GST) SGRGEAETRECIYYNANWELEATNQSGLERCEGEQDKRLHCYASWANSSGTIELVKKGCWLDDFNCYDRQECVATEENPQVYFCCCEGNFCNERFTHLPEA | binds | 
